Test results from US20210095265A1 (WISCONSIN ALUMNI RESEARCH FOUNDATION, published 2021).
Results are given in words; binding and its absence hold for the method and conditions named. Binding seen in cells or lysates may run through a third protein. Some results given as binding are weak or reduced against the parent protein; the word gives no strength.

Biological target: T1, Saro_2873 polypeptide from Novosphingobium aromaticivorans (subunit of BaeA), co-expressed with Saro_2872 in E. coli (Novosphingobium aromaticivorans)
T1 sequence: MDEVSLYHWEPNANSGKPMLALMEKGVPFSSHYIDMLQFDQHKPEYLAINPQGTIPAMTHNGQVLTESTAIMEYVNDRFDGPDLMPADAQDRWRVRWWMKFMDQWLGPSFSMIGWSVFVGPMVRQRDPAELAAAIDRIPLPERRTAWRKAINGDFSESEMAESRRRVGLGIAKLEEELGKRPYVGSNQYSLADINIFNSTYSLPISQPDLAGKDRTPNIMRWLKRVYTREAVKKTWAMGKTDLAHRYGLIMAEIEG
Test: co-purification on Ni2+-NTA with a His8-tag on only one polypeptide; gel permeation chromatography

binding: binds
B1: Saro_2872 polypeptide from Novosphingobium aromaticivorans (subunit of BaeA), co-expressed with Saro_2873 in E. coli (enzyme)
chain: MSALLYHGEPNGASLTVLAALAETGLDIECRRIDLLAGERHSLPGIVDPVALDLSIEGEGPVLVIDGEAMTESVFLAQYLDEAAGGVGLQPTDAYARWEMMMWCRQITERLSPAAALLGNLATSQSAIAAIPAEDFAILAARIVSDDLRERWQALNDDAVNAAQVADSETKVAAAVDRCEKQLGDGREWLMGTFSIADLVTYSWLAGMEPLRPAAFADAPLVKAWLARTAARPCVQAALARATISEPLRAWAPGPEINRWG
notes: Co-expressed with Saro_2873 from one pVP302K vector; In the H2872 construct Saro_2872 lacks its native start codon; also called Saro_2872 subunit; first polypeptide of BaeA
